PubChem BioAssay AID652243 | Drosophila RNAi Screening Center – 2013
Screen: 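Knock-downs that decrease or increase androgen receptor reporter signal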 (primary screen). Cell system: Drosophila S2R+ cells. Reagents: long dsRNA against Drosophila genes. Time to read-out: 72 h (48 h, then 24 h hormone). Challenge: synthetic androgen R1881 at 10 nM for 24 h. Detection: 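Firefly light from an androgen-responsive reporter and Renilla control light per well, raw and unnormalised, for each of two replicates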. Direction: firefly reporter light: higher = more light from androgen-responsive reporter; Renilla control light: higher = more constitutive control signal (cell number, transfection). Rule for the call: 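Across duplicate plates, a knock-down whose log firefly/Renilla ratio shifted a set fold down or up from the GFP/LacZ control mean was a hit; the downward cut appears as both 1.5 and 3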. Calls: active = hit: reporter lowered or raised; inactive = no hit.
The screen tested about 24,000 reagents; shown is a random part of those with a known target gene and a result. In the full data, 246 (1%) are marked active. 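Plates not normalised; calls are printed but the firefly/Renilla ratio behind them is not deposited; fold cut for lowering reported inconsistently.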 The raw values are shown without normalisation. The numbers tell different reagents against one gene apart. Names joined by + are all predicted targets of the reagent. Reagent sequences are not shown. Not given: the amount of reagent.

tna #1 → firefly reporter light, replicate 1 = 8.31e5; firefly reporter light, replicate 2 = 1.12e6; Renilla control light, replicate 1 = 1.82e6; Renilla control light, replicate 2 = 1.62e6; activity call = inactive
tna #2 → firefly reporter light, replicate 1 = 7.35e5; firefly reporter light, replicate 2 = 6.80e5; Renilla control light, replicate 1 = 1.01e6; Renilla control light, replicate 2 = 1.01e6; activity call = inactive
CG33299 → firefly reporter light, replicate 1 = 1.74e5; firefly reporter light, replicate 2 = 1.74e5; Renilla control light, replicate 1 = 5.74e5; Renilla control light, replicate 2 = 6.23e5; activity call = inactive
CG4281 #1 → firefly reporter light, replicate 1 = 84273; firefly reporter light, replicate 2 = 58510; Renilla control light, replicate 1 = 7.98e5; Renilla control light, replicate 2 = 4.79e5; activity call = inactive
CG4281 #2 → firefly reporter light, replicate 1 = 5.46e5; firefly reporter light, replicate 2 = 8.59e5; Renilla control light, replicate 1 = 5.88e5; Renilla control light, replicate 2 = 1.30e6; activity call = inactive
hth #1 → firefly reporter light, replicate 1 = 1.06e5; firefly reporter light, replicate 2 = 1.32e5; Renilla control light, replicate 1 = 1.39e6; Renilla control light, replicate 2 = 1.64e6; activity call = inactive
hth #2 → firefly reporter light, replicate 1 = 7.27e5; firefly reporter light, replicate 2 = 3.88e5; Renilla control light, replicate 1 = 5.50e5; Renilla control light, replicate 2 = 6.05e5; activity call = inactive

2 entries from above, arranged by “Renilla control light, replicate 1”, descending:
CG4281 #1 → firefly reporter light, replicate 1 = 84273; firefly reporter light, replicate 2 = 58510; Renilla control light, replicate 1 = 7.98e5; Renilla control light, replicate 2 = 4.79e5; activity call = inactive
CG4281 #2 → firefly reporter light, replicate 1 = 5.46e5; firefly reporter light, replicate 2 = 8.59e5; Renilla control light, replicate 1 = 5.88e5; Renilla control light, replicate 2 = 1.30e6; activity call = inactive

The list goes on:
Cyp312a1 #1 → firefly reporter light, replicate 1 = 2.21e5; firefly reporter light, replicate 2 = 2.31e5; Renilla control light, replicate 1 = 1.91e6; Renilla control light, replicate 2 = 2.19e6; activity call = inactive
Cyp312a1 #2 → firefly reporter light, replicate 1 = 5.35e5; firefly reporter light, replicate 2 = 3.53e5; Renilla control light, replicate 1 = 5.44e5; Renilla control light, replicate 2 = 4.93e5; activity call = inactive
CG30178 → firefly reporter light, replicate 1 = 8.10e5; firefly reporter light, replicate 2 = 5.44e5; Renilla control light, replicate 1 = 1.76e6; Renilla control light, replicate 2 = 1.89e6; activity call = inactive
s-cup #1 → firefly reporter light, replicate 1 = 1.84e5; firefly reporter light, replicate 2 = 1.29e5; Renilla control light, replicate 1 = 1.31e6; Renilla control light, replicate 2 = 1.06e6; activity call = inactive
s-cup #2 → firefly reporter light, replicate 1 = 4.09e5; firefly reporter light, replicate 2 = 1.78e5; Renilla control light, replicate 1 = 1.38e6; Renilla control light, replicate 2 = 1.46e6; activity call = inactive
s-cup #3 → firefly reporter light, replicate 1 = 6.32e5; firefly reporter light, replicate 2 = 9.02e5; Renilla control light, replicate 1 = 9.59e5; Renilla control light, replicate 2 = 7.63e5; activity call = inactive
CG5783 → firefly reporter light, replicate 1 = 2.20e5; firefly reporter light, replicate 2 = 2.82e5; Renilla control light, replicate 1 = 2.37e6; Renilla control light, replicate 2 = 2.19e6; activity call = inactive
RpL18A → firefly reporter light, replicate 1 = 71602; firefly reporter light, replicate 2 = 87069; Renilla control light, replicate 1 = 8.28e5; Renilla control light, replicate 2 = 8.28e5; activity call = inactive
asRNA:Eig63F-2 + Eip63F-1 → firefly reporter light, replicate 1 = 6.25e5; firefly reporter light, replicate 2 = 5.67e5; Renilla control light, replicate 1 = 1.38e6; Renilla control light, replicate 2 = 1.16e6; activity call = inactive
CG11317 → firefly reporter light, replicate 1 = 1.04e5; firefly reporter light, replicate 2 = 1.52e5; Renilla control light, replicate 1 = 8.02e5; Renilla control light, replicate 2 = 5.96e5; activity call = inactive
Cpr5C → firefly reporter light, replicate 1 = 3.71e5; firefly reporter light, replicate 2 = 3.43e5; Renilla control light, replicate 1 = 2.60e6; Renilla control light, replicate 2 = 2.46e6; activity call = inactive
Sh3beta #1 → firefly reporter light, replicate 1 = 8.69e5; firefly reporter light, replicate 2 = 6.09e5; Renilla control light, replicate 1 = 2.77e6; Renilla control light, replicate 2 = 2.41e6; activity call = inactive
Sh3beta #2 → firefly reporter light, replicate 1 = 6.32e5; firefly reporter light, replicate 2 = 5.18e5; Renilla control light, replicate 1 = 6.37e5; Renilla control light, replicate 2 = 6.27e5; activity call = inactive
Sh3beta #3 → firefly reporter light, replicate 1 = 6.67e5; firefly reporter light, replicate 2 = 5.17e5; Renilla control light, replicate 1 = 2.09e6; Renilla control light, replicate 2 = 1.19e6; activity call = inactive
